Source: the supplement of paper PMC12819154, “High-throughput peptide-centric local stability assay extends protein–ligand identification to membrane proteins, tissues and bacteria” (Nature Structural & Molecular Biology, 2025)
This is one part of the list. Small differences around the control level are noise.

Amino acid sequences for entries named in this document (tags omitted). A change or cut given only in a name is not applied to a line headed by its entry.
UniProt Q8BQN6: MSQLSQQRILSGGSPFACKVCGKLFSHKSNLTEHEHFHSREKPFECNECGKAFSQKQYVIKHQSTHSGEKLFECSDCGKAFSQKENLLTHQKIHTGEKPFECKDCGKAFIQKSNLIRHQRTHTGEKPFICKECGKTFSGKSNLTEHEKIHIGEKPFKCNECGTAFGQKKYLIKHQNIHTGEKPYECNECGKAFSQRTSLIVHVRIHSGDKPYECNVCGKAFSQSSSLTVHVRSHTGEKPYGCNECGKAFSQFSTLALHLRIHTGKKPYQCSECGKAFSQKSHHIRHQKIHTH
UniProt Q8BJS4: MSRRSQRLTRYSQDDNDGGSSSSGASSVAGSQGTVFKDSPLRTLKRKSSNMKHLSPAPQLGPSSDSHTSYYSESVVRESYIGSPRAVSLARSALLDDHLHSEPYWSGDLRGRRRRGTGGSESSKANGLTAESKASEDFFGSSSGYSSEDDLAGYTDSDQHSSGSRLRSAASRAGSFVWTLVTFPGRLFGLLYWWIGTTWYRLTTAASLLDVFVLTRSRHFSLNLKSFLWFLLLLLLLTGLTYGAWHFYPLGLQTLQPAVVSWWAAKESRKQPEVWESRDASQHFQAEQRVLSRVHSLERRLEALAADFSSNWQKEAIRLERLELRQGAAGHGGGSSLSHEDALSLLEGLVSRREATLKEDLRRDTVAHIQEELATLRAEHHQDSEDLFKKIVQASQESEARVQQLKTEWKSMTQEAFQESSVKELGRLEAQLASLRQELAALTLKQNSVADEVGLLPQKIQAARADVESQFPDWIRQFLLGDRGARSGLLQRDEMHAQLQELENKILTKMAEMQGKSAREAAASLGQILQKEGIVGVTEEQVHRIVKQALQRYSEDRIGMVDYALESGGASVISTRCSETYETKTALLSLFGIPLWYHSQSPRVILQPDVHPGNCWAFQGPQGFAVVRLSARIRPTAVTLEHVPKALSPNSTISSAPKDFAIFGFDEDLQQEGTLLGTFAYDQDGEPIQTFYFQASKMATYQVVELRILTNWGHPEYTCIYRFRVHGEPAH
UniProt Q8BPT6: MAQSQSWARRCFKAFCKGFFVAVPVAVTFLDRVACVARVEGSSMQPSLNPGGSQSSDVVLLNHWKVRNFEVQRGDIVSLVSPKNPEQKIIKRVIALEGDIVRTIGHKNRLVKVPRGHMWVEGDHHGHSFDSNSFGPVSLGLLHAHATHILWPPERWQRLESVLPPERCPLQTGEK
UniProt Q8BM72: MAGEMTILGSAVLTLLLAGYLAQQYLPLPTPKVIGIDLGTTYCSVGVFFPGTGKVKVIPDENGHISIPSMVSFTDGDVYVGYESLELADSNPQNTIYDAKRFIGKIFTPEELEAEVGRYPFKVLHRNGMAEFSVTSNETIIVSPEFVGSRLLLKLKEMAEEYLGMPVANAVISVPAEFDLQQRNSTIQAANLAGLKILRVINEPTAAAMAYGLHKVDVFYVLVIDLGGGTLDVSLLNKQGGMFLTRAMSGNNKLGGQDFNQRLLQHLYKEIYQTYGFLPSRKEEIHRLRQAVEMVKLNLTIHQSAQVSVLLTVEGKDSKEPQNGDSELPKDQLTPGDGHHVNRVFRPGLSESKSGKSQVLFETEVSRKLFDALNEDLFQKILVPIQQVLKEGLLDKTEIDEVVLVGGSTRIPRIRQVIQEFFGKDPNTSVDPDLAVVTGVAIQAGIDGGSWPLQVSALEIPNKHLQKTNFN

Compound: CN[C@@H]1C[C@H]2O[C@@](C)([C@@H]1OC)n1c3ccccc3c3c4c(c5c6ccccc6n2c5c31)C(=O)NC4 [staurosporine]
Assay: log2 fold change of tryptic peptide abundance, ligand vs vehicle (limited proteolysis) (log2 ratio); higher = more trypsin-susceptible (destabilized)
Settings: ligand concentration: 20 uM; sample: mouse liver crude lysate; replicate design: treated separately

Q: With “UniProt Q8BQN6 (peptide sequence: TSLIVHVR, peptide start residue: 197)” as the target, how does the log2 fold change read?
A: 0.227

Q: Which log2 fold change does the source give for “UniProt Q8BJS4 (peptide sequence: RLEALAADFSSNWQK, peptide start residue: 300)” here?
A: -0.279

Q: How did the log2 fold change turn out when “UniProt Q8BPT6 (peptide sequence: VIALEGDIVR, peptide start residue: 93)” was run?
A: 0.0917

Q: How did the log2 fold change turn out when “UniProt Q8BM72 (peptide sequence: EPQNGDSELPKDQLTPGDGHHVNR, peptide start residue: 320)” was run?
A: 0.231
